The source of these data is the supplement of paper PMC12819154, “High-throughput peptide-centric local stability assay extends protein–ligand identification to membrane proteins, tissues and bacteria” (Nature Structural & Molecular Biology, 2025).

By UniProt entry, the sequences of proteins in these tests, tags left out. Where a name states a change or a piece, a line headed by the entry shows the natural chain unless it says otherwise.
UniProt Q9P2N6: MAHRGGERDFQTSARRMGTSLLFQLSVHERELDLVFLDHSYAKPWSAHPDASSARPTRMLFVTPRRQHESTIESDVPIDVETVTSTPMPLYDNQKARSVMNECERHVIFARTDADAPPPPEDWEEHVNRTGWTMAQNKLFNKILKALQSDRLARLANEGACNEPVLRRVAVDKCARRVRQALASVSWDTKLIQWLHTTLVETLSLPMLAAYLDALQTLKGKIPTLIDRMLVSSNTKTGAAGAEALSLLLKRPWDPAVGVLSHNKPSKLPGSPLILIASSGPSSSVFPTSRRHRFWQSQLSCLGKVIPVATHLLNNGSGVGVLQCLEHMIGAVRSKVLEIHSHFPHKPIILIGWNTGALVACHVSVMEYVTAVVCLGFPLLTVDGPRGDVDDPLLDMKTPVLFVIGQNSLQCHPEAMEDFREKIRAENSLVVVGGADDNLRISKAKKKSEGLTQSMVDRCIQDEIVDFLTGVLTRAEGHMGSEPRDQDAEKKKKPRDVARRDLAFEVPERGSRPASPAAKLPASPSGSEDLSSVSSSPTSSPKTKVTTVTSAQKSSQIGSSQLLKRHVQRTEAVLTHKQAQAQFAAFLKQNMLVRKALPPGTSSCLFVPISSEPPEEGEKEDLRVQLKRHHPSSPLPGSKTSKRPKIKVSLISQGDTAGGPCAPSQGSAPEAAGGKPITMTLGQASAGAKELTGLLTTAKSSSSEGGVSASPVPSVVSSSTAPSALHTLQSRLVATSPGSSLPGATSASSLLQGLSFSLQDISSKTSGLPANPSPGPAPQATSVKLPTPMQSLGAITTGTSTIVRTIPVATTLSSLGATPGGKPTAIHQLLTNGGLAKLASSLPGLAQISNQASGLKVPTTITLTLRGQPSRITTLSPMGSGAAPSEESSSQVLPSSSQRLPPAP
UniProt Q9UJK0: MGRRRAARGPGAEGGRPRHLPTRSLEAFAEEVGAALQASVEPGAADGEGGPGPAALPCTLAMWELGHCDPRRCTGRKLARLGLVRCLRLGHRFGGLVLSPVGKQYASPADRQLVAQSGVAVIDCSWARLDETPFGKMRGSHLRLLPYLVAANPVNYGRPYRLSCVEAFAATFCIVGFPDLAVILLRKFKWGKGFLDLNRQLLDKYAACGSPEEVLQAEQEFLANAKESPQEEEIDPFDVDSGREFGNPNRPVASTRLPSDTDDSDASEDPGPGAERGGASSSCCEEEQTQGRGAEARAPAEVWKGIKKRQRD
UniProt Q9UGR2: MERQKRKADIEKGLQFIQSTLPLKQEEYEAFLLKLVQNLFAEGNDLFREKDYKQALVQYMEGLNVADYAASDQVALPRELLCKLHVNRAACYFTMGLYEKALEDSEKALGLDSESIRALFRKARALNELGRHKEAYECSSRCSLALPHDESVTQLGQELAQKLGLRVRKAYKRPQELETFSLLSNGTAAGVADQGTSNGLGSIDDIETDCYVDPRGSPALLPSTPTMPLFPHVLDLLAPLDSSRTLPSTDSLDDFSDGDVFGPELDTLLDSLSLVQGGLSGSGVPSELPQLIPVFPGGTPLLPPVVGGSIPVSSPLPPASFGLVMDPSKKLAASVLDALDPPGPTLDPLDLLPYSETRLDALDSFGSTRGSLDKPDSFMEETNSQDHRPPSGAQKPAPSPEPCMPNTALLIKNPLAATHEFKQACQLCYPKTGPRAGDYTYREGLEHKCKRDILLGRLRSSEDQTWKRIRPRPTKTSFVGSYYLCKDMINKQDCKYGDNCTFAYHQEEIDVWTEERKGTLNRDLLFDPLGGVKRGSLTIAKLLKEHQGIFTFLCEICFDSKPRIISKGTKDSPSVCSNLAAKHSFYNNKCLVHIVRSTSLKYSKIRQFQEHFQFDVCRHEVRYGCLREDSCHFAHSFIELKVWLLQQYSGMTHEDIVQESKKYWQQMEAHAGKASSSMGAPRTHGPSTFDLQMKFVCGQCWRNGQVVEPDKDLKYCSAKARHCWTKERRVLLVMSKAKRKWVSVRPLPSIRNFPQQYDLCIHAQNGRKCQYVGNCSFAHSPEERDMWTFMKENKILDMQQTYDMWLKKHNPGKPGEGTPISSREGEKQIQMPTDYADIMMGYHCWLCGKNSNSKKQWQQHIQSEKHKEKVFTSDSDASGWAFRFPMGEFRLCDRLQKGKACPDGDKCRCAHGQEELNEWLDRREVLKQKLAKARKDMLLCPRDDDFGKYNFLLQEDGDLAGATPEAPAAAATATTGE
UniProt Q9UHW5, whole entry: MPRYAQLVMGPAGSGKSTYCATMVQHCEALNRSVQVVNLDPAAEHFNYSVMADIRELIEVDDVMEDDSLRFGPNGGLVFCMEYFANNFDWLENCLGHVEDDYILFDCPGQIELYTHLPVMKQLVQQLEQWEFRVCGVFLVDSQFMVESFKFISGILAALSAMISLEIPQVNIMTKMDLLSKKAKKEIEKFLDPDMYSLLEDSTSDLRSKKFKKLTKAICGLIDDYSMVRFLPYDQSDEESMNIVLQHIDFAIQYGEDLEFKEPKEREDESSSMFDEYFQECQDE
UniProt Q9UJM8: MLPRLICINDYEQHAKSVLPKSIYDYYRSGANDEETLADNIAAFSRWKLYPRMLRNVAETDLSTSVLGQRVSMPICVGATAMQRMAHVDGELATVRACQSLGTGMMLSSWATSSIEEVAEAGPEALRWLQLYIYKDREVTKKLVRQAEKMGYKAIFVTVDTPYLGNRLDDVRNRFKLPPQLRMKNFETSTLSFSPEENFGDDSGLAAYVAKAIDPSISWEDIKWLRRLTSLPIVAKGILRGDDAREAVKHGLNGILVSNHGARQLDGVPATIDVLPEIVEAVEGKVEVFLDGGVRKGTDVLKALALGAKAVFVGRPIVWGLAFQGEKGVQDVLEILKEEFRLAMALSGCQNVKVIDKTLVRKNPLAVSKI
UniProt Q9UJX2, whole entry: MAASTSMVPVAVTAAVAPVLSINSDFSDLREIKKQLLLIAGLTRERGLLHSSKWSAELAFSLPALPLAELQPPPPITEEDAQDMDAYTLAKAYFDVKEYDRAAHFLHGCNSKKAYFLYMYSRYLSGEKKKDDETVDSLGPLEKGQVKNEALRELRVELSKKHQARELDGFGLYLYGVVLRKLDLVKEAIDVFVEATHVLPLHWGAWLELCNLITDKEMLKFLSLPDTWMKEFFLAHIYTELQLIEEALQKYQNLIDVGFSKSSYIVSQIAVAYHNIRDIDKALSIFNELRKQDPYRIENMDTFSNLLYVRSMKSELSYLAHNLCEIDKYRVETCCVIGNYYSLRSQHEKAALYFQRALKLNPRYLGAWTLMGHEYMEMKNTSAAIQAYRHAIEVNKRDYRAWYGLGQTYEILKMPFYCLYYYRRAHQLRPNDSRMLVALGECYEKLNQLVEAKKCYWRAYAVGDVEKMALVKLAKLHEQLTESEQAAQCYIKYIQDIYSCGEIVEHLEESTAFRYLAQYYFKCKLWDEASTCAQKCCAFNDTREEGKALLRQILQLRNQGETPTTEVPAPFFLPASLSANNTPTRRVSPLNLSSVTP
UniProt Q9UBD5: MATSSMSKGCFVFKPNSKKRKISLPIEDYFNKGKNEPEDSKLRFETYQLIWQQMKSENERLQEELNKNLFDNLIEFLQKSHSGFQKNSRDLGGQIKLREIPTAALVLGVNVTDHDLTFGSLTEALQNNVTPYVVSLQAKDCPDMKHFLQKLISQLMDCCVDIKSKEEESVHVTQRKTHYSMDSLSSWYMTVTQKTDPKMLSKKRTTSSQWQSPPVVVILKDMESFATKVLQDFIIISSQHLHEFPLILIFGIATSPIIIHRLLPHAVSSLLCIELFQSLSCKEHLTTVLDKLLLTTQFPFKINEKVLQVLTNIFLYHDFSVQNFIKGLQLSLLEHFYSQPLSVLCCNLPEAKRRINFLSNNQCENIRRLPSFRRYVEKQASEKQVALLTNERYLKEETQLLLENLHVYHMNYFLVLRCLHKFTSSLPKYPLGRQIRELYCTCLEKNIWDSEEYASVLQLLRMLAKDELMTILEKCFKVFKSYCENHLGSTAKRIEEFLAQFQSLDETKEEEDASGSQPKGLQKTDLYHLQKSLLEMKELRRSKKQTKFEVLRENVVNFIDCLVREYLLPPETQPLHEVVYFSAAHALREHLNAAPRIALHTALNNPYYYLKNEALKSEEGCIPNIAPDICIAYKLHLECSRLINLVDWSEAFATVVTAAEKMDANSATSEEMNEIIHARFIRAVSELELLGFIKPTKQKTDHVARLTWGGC
UniProt Q9UBK8: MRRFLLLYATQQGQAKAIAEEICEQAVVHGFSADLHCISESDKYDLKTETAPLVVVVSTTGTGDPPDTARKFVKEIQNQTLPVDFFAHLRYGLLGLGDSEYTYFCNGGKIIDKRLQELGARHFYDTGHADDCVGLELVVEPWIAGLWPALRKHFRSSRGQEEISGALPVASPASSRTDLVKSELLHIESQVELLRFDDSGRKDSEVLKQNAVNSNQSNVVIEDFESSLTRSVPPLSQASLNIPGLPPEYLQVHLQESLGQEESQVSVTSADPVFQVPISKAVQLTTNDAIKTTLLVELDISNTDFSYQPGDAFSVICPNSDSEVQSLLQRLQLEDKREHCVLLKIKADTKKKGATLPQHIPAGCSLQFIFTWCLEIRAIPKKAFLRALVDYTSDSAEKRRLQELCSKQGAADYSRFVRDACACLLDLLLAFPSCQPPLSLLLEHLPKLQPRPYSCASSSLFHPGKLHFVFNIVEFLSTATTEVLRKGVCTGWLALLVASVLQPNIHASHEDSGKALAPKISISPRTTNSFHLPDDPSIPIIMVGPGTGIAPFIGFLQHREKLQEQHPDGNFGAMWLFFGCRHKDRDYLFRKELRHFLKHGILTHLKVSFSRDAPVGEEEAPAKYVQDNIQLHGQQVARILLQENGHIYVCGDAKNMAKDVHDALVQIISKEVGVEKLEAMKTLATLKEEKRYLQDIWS
UniProt Q9UGI8: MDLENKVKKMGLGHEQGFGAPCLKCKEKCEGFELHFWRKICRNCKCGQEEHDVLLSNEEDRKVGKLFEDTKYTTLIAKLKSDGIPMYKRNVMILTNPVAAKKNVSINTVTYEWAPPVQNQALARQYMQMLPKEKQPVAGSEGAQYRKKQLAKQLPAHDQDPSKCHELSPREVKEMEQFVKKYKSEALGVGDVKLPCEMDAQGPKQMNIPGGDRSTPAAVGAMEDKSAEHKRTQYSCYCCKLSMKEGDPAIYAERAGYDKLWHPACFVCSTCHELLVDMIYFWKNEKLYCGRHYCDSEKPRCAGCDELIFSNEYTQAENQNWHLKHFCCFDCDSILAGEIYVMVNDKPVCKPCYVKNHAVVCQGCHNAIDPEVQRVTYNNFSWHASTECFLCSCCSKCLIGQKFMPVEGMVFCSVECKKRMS
UniProt Q9UJY5: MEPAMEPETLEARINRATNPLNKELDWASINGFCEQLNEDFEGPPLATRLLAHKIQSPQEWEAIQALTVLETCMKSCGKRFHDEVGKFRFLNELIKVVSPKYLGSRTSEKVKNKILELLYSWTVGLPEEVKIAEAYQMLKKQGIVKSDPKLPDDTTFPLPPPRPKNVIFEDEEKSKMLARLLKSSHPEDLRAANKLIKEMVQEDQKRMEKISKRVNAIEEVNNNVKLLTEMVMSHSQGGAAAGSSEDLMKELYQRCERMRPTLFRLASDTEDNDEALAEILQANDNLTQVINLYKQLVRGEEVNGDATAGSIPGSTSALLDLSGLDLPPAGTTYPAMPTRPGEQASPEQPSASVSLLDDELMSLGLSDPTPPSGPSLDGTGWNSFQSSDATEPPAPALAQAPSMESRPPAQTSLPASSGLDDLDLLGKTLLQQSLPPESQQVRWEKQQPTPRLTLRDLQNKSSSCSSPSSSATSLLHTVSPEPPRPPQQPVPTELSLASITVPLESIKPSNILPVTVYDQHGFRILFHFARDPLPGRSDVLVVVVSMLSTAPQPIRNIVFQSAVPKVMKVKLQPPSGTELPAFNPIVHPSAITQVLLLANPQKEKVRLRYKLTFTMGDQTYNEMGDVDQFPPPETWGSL
UniProt Q9UBF1: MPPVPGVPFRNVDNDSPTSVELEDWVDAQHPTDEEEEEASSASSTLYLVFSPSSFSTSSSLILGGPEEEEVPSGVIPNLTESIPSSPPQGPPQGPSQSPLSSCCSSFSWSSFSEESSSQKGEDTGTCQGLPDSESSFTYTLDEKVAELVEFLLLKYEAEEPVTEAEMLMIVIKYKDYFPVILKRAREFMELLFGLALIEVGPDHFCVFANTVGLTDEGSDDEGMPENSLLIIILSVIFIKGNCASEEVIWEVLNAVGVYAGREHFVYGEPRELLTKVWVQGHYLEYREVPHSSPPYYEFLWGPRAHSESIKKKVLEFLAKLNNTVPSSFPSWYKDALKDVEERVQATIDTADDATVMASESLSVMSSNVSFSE

This is one part of the list. Small differences around the control level are noise.

Compound in the test: CN[C@@H]1C[C@H]2O[C@@](C)([C@@H]1OC)n1c3ccccc3c3c4c(c5c6ccccc6n2c5c31)C(=O)NC4 [staurosporine]
The experiment in a line: log2 fold change of tryptic peptide abundance, ligand vs vehicle (limited proteolysis) (log2 ratio); higher = more trypsin-susceptible (destabilized). As to conditions: ligand concentration: 20 uM; sample: K562 cleared lysate; digestion: 4 min, 22 C (HT-PELSA RT4min, Orbitrap Astral).
In the case of “UniProt Q9P2N6 (peptide sequence: GDVDDPLLDMK, peptide start residue: 387)”, the log2 fold change was -1.29.
Regarding “UniProt Q9UJK0 (peptide sequence: QYASPADR, peptide start residue: 104)”, the log2 fold change is -0.875.
The same measure for “ZC3H7B (peptide sequence: ASSSMGAPR, peptide start residue: 674) (UniProt Q9UGR2)”: -0.138; for “GPN3 (peptide sequence: STYCATMVQHCEALNR, peptide start residue: 17) (UniProt Q9UHW5)”: -0.233; for “UniProt Q9UJM8 (peptide sequence: ALALGAK, peptide start residue: 289)”: -0.0407.
On to “CDC23 (peptide sequence: MLVALGECYEK, peptide start residue: 435) (UniProt Q9UJX2)”, for which the log2 fold change is -0.133.
Consider “UniProt Q9UBD5 (peptide sequence: ELYCTCLEK, peptide start residue: 437)”, for which the log2 fold change is 0.941.
With “MTRR (peptide sequence: GQEEISGALPVASPASSR, peptide start residue: 159) (UniProt Q9UBK8)”, the log2 fold change was -0.248.
The same measure for “TES (peptide sequence: RTQYSCYCCK, peptide start residue: 231) (UniProt Q9UGI8)”: -0.66; for “GGA1 (peptide sequence: NVIFEDEEK, peptide start residue: 166) (UniProt Q9UJY5)”: -0.102.
As for “MAGEC2 (peptide sequence: PPVPGVPFR, peptide start residue: 2) (UniProt Q9UBF1)”, the log2 fold change came out at 0.0567.
